Reference: PubChem BioAssay AID1347075 (National Center for Advancing Translational Sciences (NCATS), 2019)
In all, about 400,000 compounds went through this assay and about 5,500 (1.4%) were called active. Inconclusive results, whose numbers are uncertain, are shown with a selection of clear calls. Calls follow the shape of the dose curve; as a rule, active = well fitted cell-killing curve with a large enough effect; inconclusive = small, poorly fitted or top-dose-only effect, or effect the other way; inactive = flat fitted curve, though single readings scatter. Potencies beside an inconclusive call are fits to weak or partial responses and may not hold up.
% is scaled to controls: 0 for no effect and ±100 for the full control effect; potency is read from the fitted curve at half-maximal effect.

Experiment: qHTS assay for MDR1-selective chemotherapeutics: Primary screen using the parental adenocarcinoma cell KB-3-1; also: nearly all actives have a fitted effect of over 60% in size
Details: KB-3-1 viability, CellTiter-Glo ATP luminescence, 72 h; activity change, negative = cytotoxic: at 46.1 µM (top of the series)
In short: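 Cytotoxicity in the drug-sensitive parental line KB-3-1 was scored as loss of CellTiter-Glo luminescence following 72 h incubation with compound. Values come from curve fitting of normalized concentration-response data.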
With Cc1nc2ccccn2c1C(=O)NC1CCCc2ccccc21 (centres undefined) the Potency was inconclusive: 11.6 µM [cytotoxic, partial curve].
For Cc1cc2cc(C)c3nnc(SCC(=O)NCc4ccc5c(c4)OCO5)n3c2cc1C, the “activity change, negative = cytotoxic” value was inactive: -1.68%.
For CCOc1ccc(NC(=O)c2ccc3[nH]c(=O)c(=O)[nH]c3c2)cc1, the “activity change, negative = cytotoxic” value was inactive: -1.84%.
For CCC1C/C(=C\c2cccnc2)C(=O)/C(=C/c2cccnc2)C1 (centres undefined), the Potency was active: 3.66 µM.
For COc1ccc(NC(=O)NCCN2CCCCC2)cc1, the “activity change, negative = cytotoxic” value was inactive: 0.522%.
With O=C(O)c1ccc(-c2nnc(-c3ccccc3)o2)cc1 the Potency was inconclusive: 23.1 µM [cytotoxic, partial curve, poor fit].
In the case of COc1ccc(/C=N\NC(=O)c2c(C)nc3ccc(Br)cn23)cc1, the Potency is reported as inconclusive: 1.84 µM [cytotoxic, partial curve, poor fit].
For CC1OC(C2CCCCC2)Cc2[nH]c(=S)[nH]c(=O)c21 (centres undefined), the “activity change, negative = cytotoxic” value was inactive: -24.9%.
In the case of N#C/C(=C\C1=C(N2CCOCC2)C(=C\c2ccccc2)/CC1)C(=O)Nc1ccccc1F, the Potency is reported as inconclusive: 18.4 µM [cytotoxic, single point].
With O=C(Cc1cccs1)OCC(=O)c1ccco1 the “activity change, negative = cytotoxic” value was inactive: 4.32%.
With CCN1CCN(CCNC(=O)c2ccc3c(c2)N(Cc2ccc(F)cc2)C(=O)/C(=C/c2ccccc2)S3)CC1 the Potency was inconclusive: 20.6 µM [cytotoxic, single point].
For CN(CC(=O)NCCc1ccc(S(N)(=O)=O)cc1)CC(=O)Nc1ccc(Cl)c(C(F)(F)F)c1, the Potency was active: 16.4 µM.
In the case of COC(=O)CNC(=O)COC(=O)/C=C/c1ccccc1[N+](=O)[O-], the “activity change, negative = cytotoxic” value is reported as inactive: -4.73%.
In the case of Cc1ccc2c(c1)c1c(n2CC(O)CNC(C)(C)C)CCCC1 (centres undefined), the Potency is reported as inconclusive: 18.4 µM [cytotoxic, single point].
In the case of O=C(Nc1ccc(Cl)c(S(=O)(=O)N2CCOCC2)c1)C1=NN(c2ccccc2)C(=O)CC1, the Potency is reported as inconclusive: 11.6 µM [rising, partial curve].
With CCCn1c(N2CCN(S(=O)(=O)Cc3ccccc3)CC2)nc2ccccc21 the Potency was inconclusive: 29.1 µM [cytotoxic, single point].
With COc1ccc(N(CC(=O)Nc2cc(Cl)ccc2C)S(=O)(=O)c2c(C)n[nH]c2C)cc1 the Potency was active: 9.2 µM.
With Cc1ccc(-c2cc(=O)c3ccccc3[nH]2)cc1 the Potency was inconclusive: 3.66 µM [cytotoxic, full curve].
In the case of NC(=O)c1c(NC(=O)CSc2nnc(-c3ccco3)n2-c2ccccc2)sc2c1CCC2, the Potency is reported as inconclusive: 29.1 µM [cytotoxic, single point].
In the case of CCOc1ccccc1N1CCN(c2nc(N)c(C#N)c(CC#N)c2C#N)CC1, the Potency is reported as inconclusive: 18.4 µM [cytotoxic, single point].
In the case of Cc1cc(C)c(NC(=O)C2CC3CCC2C3)c(C)c1 (centres undefined), the “activity change, negative = cytotoxic” value is reported as inactive: -0.983%.
With CC(=O)Nc1ccc(NC(=O)CSc2nnc(NC(=O)C3CC(=O)N(c4ccc(F)cc4)C3)s2)cc1 (centres undefined) the Potency was inconclusive: 29.1 µM [rising, single point].
For CCOC(=O)N1CCC(Nc2c(N3CCN(c4cc(Cl)ccc4C)CC3)c(=O)c2=O)CC1, the Potency was inconclusive: 20.6 µM [cytotoxic, single point].
With O=C(NC(Cc1c[nH]c2ccccc12)C(=O)Nc1ccc(OC(F)(F)F)cc1)c1cccs1 (centres undefined) the Potency was active: 11.6 µM.
For Cc1cccc(CS(=O)(=O)c2ncc(Cl)c(C(=O)Nc3c(C)cccc3C)n2)c1, the Potency was inconclusive: 20.6 µM [cytotoxic, single point].
With Cc1nn(C(C)C(=O)N2CCN(c3ccc(Cl)cc3)CC2)c(=O)c2cc3occc3n12 (centres undefined) the Potency was inconclusive: 29.1 µM [cytotoxic, single point].
For COc1ccc(/C=C/C(=O)NCCCN2CCCCCC2)cc1, the “activity change, negative = cytotoxic” value was inactive: 16.4%.
In the case of CCOC(=O)N1CCN(Cc2nc3c(c(=O)n(C)c(=O)n3C)n2CCCc2ccccc2)CC1, the Potency is reported as inconclusive: 2.31 µM [rising, full curve, poor fit].
For CSc1ccc(/C=C/c2nc3ccccc3n2S(=O)(=O)c2cccc(Cl)c2)cc1, the Potency was active: 14.6 µM.
In the case of CCOc1cc(NC(=S)Nc2ccccc2)c(OCC)cc1NC(=O)c1ccccc1, the “activity change, negative = cytotoxic” value is reported as inactive: 7.86%.
In the case of COc1ccc(S(=O)(=O)N2CCOCC2)cc1NC(=O)c1ccc(S(=O)(=O)N(C)c2ccccc2OC)cc1, the “activity change, negative = cytotoxic” value is reported as inactive: 15.6%.
For COc1ccc(S(=O)(=O)Nc2ccc(F)cc2F)cc1C(=O)N1CCOCC1, the Potency was inconclusive: 29.1 µM [rising, single point].
For CCCCn1c(N)c(S(=O)(=O)c2ccc(C)cc2)c2nc3ccccc3nc21, the Potency was inconclusive: 29.1 µM [cytotoxic, single point].
In the case of O=C(CN1CC[n+]2c(-c3cccs3)csc21)c1ccc(Br)cc1, the Potency is reported as inconclusive: 29.1 µM [cytotoxic, single point].
